Some of the results follow. Single values are uncertain, as repeats are few or missing.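 Imaging used 1,536-well plates; nuclei positive for cleaved PARP by antibody were divided by total DNA-stained nuclei to yield the apoptosis fraction. Doses for screening kept most cells viable, and cell lines differ markedly in resting and induced cleaved-PARP levels.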
Experiments:
Experiment in all cases: cleaved PARP positive nuclei fraction relative to DMSO control; melanoma cells; higher = more apoptosis
Conditions in all cases: library dose: low library concentration; 72 h
501Mel = system: 501Mel
A101D = system: A101D
A2058 = system: A2058
A375 = system: A375
C32 = system: C32
CBRC013 = system: CBRC013 (line from a melanoma biopsy)
CBRC014 = system: CBRC014 (line from a melanoma biopsy)
CBRC016 = system: CBRC016 (line from a melanoma biopsy)
CBRC017 = system: CBRC017 (line from a melanoma biopsy)
CBRC034 = system: CBRC034 (line from a melanoma biopsy)
COLO792 = system: COLO792
COLO800 = system: COLO800
COLO829 = system: COLO829
G361 = system: G361
IPC-298 = system: IPC-298
IST-MEL1 = system: IST-MEL1
LB2518-MEL = system: LB2518-MEL
LOXIMVI = system: LOXIMVI
CBRC008 = system: CBRC008 (line from a melanoma biopsy)
MEL-HO = system: MEL-HO

Compound	cleaved PARP positive nuclei fraction (501Mel) [%]	cleaved PARP positive nuclei fraction (A101D) [%]	cleaved PARP positive nuclei fraction (A2058) [%]	cleaved PARP positive nuclei fraction (A375) [%]	cleaved PARP positive nuclei fraction (C32) [%]	cleaved PARP positive nuclei fraction (CBRC013) [%]	cleaved PARP positive nuclei fraction (CBRC014) [%]	cleaved PARP positive nuclei fraction (CBRC016) [%]	cleaved PARP positive nuclei fraction (CBRC017) [%]	cleaved PARP positive nuclei fraction (CBRC034) [%]	cleaved PARP positive nuclei fraction (COLO792) [%]	cleaved PARP positive nuclei fraction (COLO800) [%]	cleaved PARP positive nuclei fraction (COLO829) [%]	cleaved PARP positive nuclei fraction (G361) [%]	cleaved PARP positive nuclei fraction (IPC-298) [%]	cleaved PARP positive nuclei fraction (IST-MEL1) [%]	cleaved PARP positive nuclei fraction (LB2518-MEL) [%]	cleaved PARP positive nuclei fraction (LOXIMVI) [%]	cleaved PARP positive nuclei fraction (CBRC008) [%]	cleaved PARP positive nuclei fraction (MEL-HO) [%]
Nc1cccc2c1CN(C1CCC(=O)NC1=O)C2=O (stereo not drawn) [lenalidomide] + CC(C)CCN1c2nc(Nc3cc(F)c(O)c(F)c3)ncc2N(C)C(=O)C1C [BID1870] (first compound 1 µM, partner dose 0.2 µM)	76	55.9	208	56.7	42.8	406	191	124	77.9	100	89.4	66.3	84.5	70.3	139	88.8	193	94.8	–	–
Cn1c(Nc2ccc(C(F)(F)F)cc2)nc2cc(Oc3ccnc(-c4ncc(C(F)(F)F)[nH]4)c3)ccc21 + C[C@]1(c2nc3c(C(N)=O)cccc3[nH]2)CCCN1 [Veliparib] (first compound 0.08 µM, partner dose 1.4 µM)	210	80.3	159	220	109	–	114	152	96.9	67.9	247	100	96.7	246	74.8	63.4	502	235	127	305
CC1(C)NC(=O)N(c2ccc([N+](=O)[O-])c(C(F)(F)F)c2)C1=O [nilutamide] + COc1cc2ncnc(Nc3ccc(Oc4ccccc4)cc3)c2cc1OC [SrcI1] (first compound 1 µM, partner dose 2 µM)	73.1	148	21.1	104	48.6	56.1	68.2	50.3	79.1	80.7	67.5	22.6	59.3	75.2	81.4	91.6	101	184	–	–
C=CCn1c(=O)c2cnc(Nc3ccc(N4CCN(C)CC4)cc3)nc2n1-c1cccc(C(C)(C)O)n1 + CCCCCCCCCCCC1=C(O)C(=O)C=C(O)C1=O [Embelin] (first compound 0.02 µM, partner dose 1.2 µM)	68.9	139	144	308	63.7	150	118	67.2	82.9	94.5	164	149	134	70.6	141	82.4	105	78.4	–	–
CO[C@@H]1[C@H](N(C)C(=O)c2ccccc2)C[C@H]2O[C@]1(C)n1c3ccccc3c3c4c(c5c6ccccc6n2c5c31)C(=O)NC4 [Midostaurin] + COc1ccc(-c2ccc3c(N4CCOCC4)nc(N4C[C@@H](C)O[C@@H](C)C4)nc3n2)cc1CO [KU0063794] (first compound 0.08 µM, partner dose 0.02 µM)	84	79	97.8	195	78.6	99	111	81.5	98.2	95.3	88.3	114	129	176	92.6	87.9	87.5	55	–	–
COCC[n+]1c2c(n(Cc3cnccn3)c1C)C(=O)c1ccccc1C2=O + CCc1ccc(CCOc2ccc(CC3SC(=O)NC3=O)cc2)nc1 [pioglitazone] (first compound 0.0004 µM, partner dose 2 µM)	73.1	39.3	116	301	124	44.6	90.2	175	78.1	100	241	45.1	154	157	130	79.9	109	33.3	–	–
Cc1nc(Nc2ncc(C(=O)Nc3c(C)cccc3Cl)s2)cc(N2CCN(CCO)CC2)n1 [dasatanib] + COCC[n+]1c2c(n(Cc3cnccn3)c1C)C(=O)c1ccccc1C2=O [YM155] (first compound 0.004 µM, partner dose 0.0004 µM)	152	297	43.7	185	89.3	–	107	163	124	265	178	120	126	69.5	96.9	69	137	141	260	90.3
CC(=O)c1c(C)c2cnc(Nc3ccc(N4CCNCC4)cn3)nc2n(C2CCCC2)c1=O [palbociclib] + Cn1c(Nc2ccc(C(F)(F)F)cc2)nc2cc(Oc3ccnc(-c4ncc(C(F)(F)F)[nH]4)c3)ccc21 [CHIR265] (first compound 0.04 µM, partner dose 0.08 µM)	163	166	99.9	864	219	–	110	190	127	47.1	797	150	43.7	190	163	106	442	119	59.5	120
C=CCn1c(=O)c2cnc(Nc3ccc(N4CCN(C)CC4)cc3)nc2n1-c1cccc(C(C)(C)O)n1 + O=C(O)C(=O)Nc1sc2c(c1C(=O)O)CCNC2 [TCS401] (first compound 0.02 µM, partner dose 1.66667 µM)	83.5	95.6	224	682	32.6	92.1	106	19	93.1	82	125	255	65.5	93.4	165	57.8	97.3	60.4	–	–
OCc1c[nH]c2ccccc12 [Indole-3-carbinol] + Cn1nnc2c(C(N)=O)ncn2c1=O [temozolomide] (first compound 0.8 µM, partner dose 2 µM)	136	97.6	83.7	59.5	91.1	–	122	178	95.6	87.7	145	151	89.1	125	125	201	103	145	41	41.8
Cc1nc(Nc2ncc(C(=O)Nc3c(C)cccc3Cl)s2)cc(N2CCN(CCO)CC2)n1 [dasatanib] + Cn1nnc2c(C(N)=O)ncn2c1=O [temozolomide] (first compound 0.004 µM, partner dose 2 µM)	128	54.8	96.8	143	101	–	108	36	64.1	219	63.5	78.3	99.7	103	128	702	232	357	60.9	133
CC1(C)NC(=O)N(c2ccc([N+](=O)[O-])c(C(F)(F)F)c2)C1=O [nilutamide] + Oc1nc(-c2ccc(C(F)(F)F)cc2)nc2c1CSCC2 [XAV939] (first compound 1 µM, partner dose 2 µM)	178	109	63.2	112	30.9	103	104	35.2	78.5	124	286	53.9	81.6	130	67.5	174	177	65.9	–	–
Nc1cccc2c1CN(C1CCC(=O)NC1=O)C2=O (stereo not drawn) [lenalidomide] + C[C@]1(c2nc3c(C(N)=O)cccc3[nH]2)CCCN1 [Veliparib] (first compound 1 µM, partner dose 1.4 µM)	88.6	44.1	109	183	78.4	–	88.8	79.7	116	176	88.7	132	143	96.4	172	31.1	240	152	92.5	34.2
OCc1c[nH]c2ccccc12 [Indole-3-carbinol] + Cc1nc(Nc2ncc(C(=O)Nc3c(C)cccc3Cl)s2)cc(N2CCN(CCO)CC2)n1 [dasatanib] (first compound 0.8 µM, partner dose 0.004 µM)	90.1	115	71.4	239	91.9	–	179	89.6	99.7	93.3	142	184	117	103	98.1	71.6	60.2	283	47.8	88.9
Cn1c(Nc2ccc(C(F)(F)F)cc2)nc2cc(Oc3ccnc(-c4ncc(C(F)(F)F)[nH]4)c3)ccc21 + COC(=O)c1sccc1S(=O)(=O)Nc1ccc(Nc2ccccc2)cc1OC [GSK0660] (first compound 0.08 µM, partner dose 1 µM)	48.9	183	167	253	73	498	87.3	189	101	53.4	255	96.8	108	171	90.4	201	212	84.5	–	–
C=CCNC1=C2C[C@@H](C)C[C@H](OC)[C@H](O)[C@@H](C)/C=C(\C)[C@H](OC(N)=O)[C@@H](OC)/C=C\C=C(/C)C(=O)NC(=CC1=O)C2=O [Tanespimycin] + Nc1cccc2c1CN(C1CCC(=O)NC1=O)C2=O [lenalidomide] (first compound 0.002 µM, partner dose 1 µM)	65.4	51	133	105	118	–	104	228	92.8	60.7	132	122	137	178	115	120	106	284	109	293
C#Cc1cccc(Nc2ncnc3cc(OCCOC)c(OCCOC)cc23)c1 [erlotinib] + Cn1c(Nc2ccc(C(F)(F)F)cc2)nc2cc(Oc3ccnc(-c4ncc(C(F)(F)F)[nH]4)c3)ccc21 [CHIR265] (first compound 0.8 µM, partner dose 0.08 µM)	268	51.2	182	109	79.4	–	108	114	110	30.9	166	128	99.8	94.2	132	46.9	254	127	101	156
Cn1cncc1[C@@](N)(c1ccc(Cl)cc1)c1ccc2c(c1)c(-c1cccc(Cl)c1)cc(=O)n2C [tipifarnib] + O=c1cc(-c2cccc3c2Sc2ccccc2S3)oc(N2CCOCC2)c1 [KU55933] (first compound 0.01 µM, partner dose 1 µM)	93.7	50.2	99	109	94.7	283	104	81.7	209	89.5	107	171	150	79.7	85.3	89.3	247	33.2	–	–

Quoted at random: 2 records from the list
Compound	cleaved PARP positive nuclei fraction (501Mel) [%]	cleaved PARP positive nuclei fraction (A101D) [%]	cleaved PARP positive nuclei fraction (A2058) [%]	cleaved PARP positive nuclei fraction (A375) [%]	cleaved PARP positive nuclei fraction (C32) [%]	cleaved PARP positive nuclei fraction (CBRC013) [%]	cleaved PARP positive nuclei fraction (CBRC014) [%]	cleaved PARP positive nuclei fraction (CBRC016) [%]	cleaved PARP positive nuclei fraction (CBRC017) [%]	cleaved PARP positive nuclei fraction (CBRC034) [%]	cleaved PARP positive nuclei fraction (COLO792) [%]	cleaved PARP positive nuclei fraction (COLO800) [%]	cleaved PARP positive nuclei fraction (COLO829) [%]	cleaved PARP positive nuclei fraction (G361) [%]	cleaved PARP positive nuclei fraction (IPC-298) [%]	cleaved PARP positive nuclei fraction (IST-MEL1) [%]	cleaved PARP positive nuclei fraction (LB2518-MEL) [%]	cleaved PARP positive nuclei fraction (LOXIMVI) [%]	cleaved PARP positive nuclei fraction (CBRC008) [%]	cleaved PARP positive nuclei fraction (MEL-HO) [%]
Cc1nc(Nc2ncc(C(=O)Nc3c(C)cccc3Cl)s2)cc(N2CCN(CCO)CC2)n1 [dasatanib] + Cn1nnc2c(C(N)=O)ncn2c1=O [temozolomide] (first compound 0.004 µM, partner dose 2 µM)	128	54.8	96.8	143	101	–	108	36	64.1	219	63.5	78.3	99.7	103	128	702	232	357	60.9	133
CC(=O)c1c(C)c2cnc(Nc3ccc(N4CCNCC4)cn3)nc2n(C2CCCC2)c1=O [palbociclib] + Cn1c(Nc2ccc(C(F)(F)F)cc2)nc2cc(Oc3ccnc(-c4ncc(C(F)(F)F)[nH]4)c3)ccc21 [CHIR265] (first compound 0.04 µM, partner dose 0.08 µM)	163	166	99.9	864	219	–	110	190	127	47.1	797	150	43.7	190	163	106	442	119	59.5	120

Reference: the supplement of paper PMC4604168 (melanoma cell lines)
